Data: patent US10160705B2, “Class of HDAC inhibitors expands the renal progenitor cells population and improves the rate of recovery from acute kidney injury” (University of Pittsburgh—Of the Commonwealth System of …, priority 2011, dated 2018)
The name of at least one read-out is uncertain. At least one structure is not confirmed: it was looked up by name or label, or the drawing left a doubt.

Test system: renal progenitor cells
Test: In situ hybridization for lhx1a expression in 10-somite embryos (renal progenitor cell expansion)
Format: in vivo
Method: PTBA was synthesized as described below. Hydroxyurea and aphidicolin were obtained from Sigma-Aldrich.
In situ hybridization and immunocytochemistry: In situ hybridization was performed as previously described with some modifications.142 Hybridization temperature was 65° C. Embryos were blocked in 2% blocking reagent (Roche) with 5% sheep serum in MAB (100 mM maleic acid and 150 mM NaCl [pH 7.5]). Whole-mount immunocytochemistry with 1:25 mouse anti-α6F antibody (Developmental Studies Hybridoma Bank) and 1:100 Cy3 secondary antibody (Jackson ImmunoResearch) was performed as described previously.108 Embryos were embedded in JB-4 for sectioning per the manufacturer's instructions (Polysciences), sectioned at 5 μm, and mounted with Cytoseal 60 (Richard-Allan Scientific).
The remaining PTBA analogs were synthesized.
In situ hybridization for lhx1a was performed as described above. […] Compounds were classified as effective, partially-effective or ineffective based on comparison to the effects of PTBA at a given concentration.
Testing of the compounds is on-going, but for those tested, Table 6 provides first pass EC50s based upon colormetric in situ hybridizations for the Lhx1a mRNA expression levels. After the procedure is run, in situ hybridization is done for the lhx1 mRNA expression and the number of embryos that show an expanded kidney field is manually counted to establish the percent of embryos showing expansion. Then the EC50 is determined by plotting the percent expansion in Excel, graphing the results and using the trendline function to determine the 50 percent point.

SMILES | lhx1a expansion, percent of treated embryos (3 μM from 2 hpf) [%] | further results
O=C(CCCCCN1C(=O)c2cccc3cccc(c23)C1=O)NO [Scriptaid, reference compound] | 25 | 
COC(=O)CCCSc1ccc(F)cc1 [UPHD-00030, methyl 4-[(4-fluoro-phenyl)sulfanyl]butanoate] |  | lhx1a expansion, percent of treated embryos (200 nM from 2 hpf, listed as methyl 4-[(4-fluorophenyl) thio]butanoate): 26%
CCC(=O)CCCCC[C@@H]1NC(=O)[C@H]2CCCCN2C(=O)[C@H]([C@@H](C)CC)NC(=O)[C@H](Cc2cn(OC)c3ccccc23)NC1=O [apicidin, reference compound] |  | lhx1a expansion, percent of treated embryos (200 nM from 2 hpf): ineffective
CC(C)(C)OC(=O)CCCSc1ccccc1 [tert-butyl 4-(phenylthio)butanoate] | 39 | 
